Measured values published in patent publication US10005846.
No constants are given. Whether binding was seen depends on the method and setting. Some binding calls cover weakened binding; strength is not graded here.

Sequences of proteins named here, by UniProt entry; tags and fusion partners are left off. A change or cut given only in a name is not applied to a line headed by its entry.
UniProt Q9WVJ6: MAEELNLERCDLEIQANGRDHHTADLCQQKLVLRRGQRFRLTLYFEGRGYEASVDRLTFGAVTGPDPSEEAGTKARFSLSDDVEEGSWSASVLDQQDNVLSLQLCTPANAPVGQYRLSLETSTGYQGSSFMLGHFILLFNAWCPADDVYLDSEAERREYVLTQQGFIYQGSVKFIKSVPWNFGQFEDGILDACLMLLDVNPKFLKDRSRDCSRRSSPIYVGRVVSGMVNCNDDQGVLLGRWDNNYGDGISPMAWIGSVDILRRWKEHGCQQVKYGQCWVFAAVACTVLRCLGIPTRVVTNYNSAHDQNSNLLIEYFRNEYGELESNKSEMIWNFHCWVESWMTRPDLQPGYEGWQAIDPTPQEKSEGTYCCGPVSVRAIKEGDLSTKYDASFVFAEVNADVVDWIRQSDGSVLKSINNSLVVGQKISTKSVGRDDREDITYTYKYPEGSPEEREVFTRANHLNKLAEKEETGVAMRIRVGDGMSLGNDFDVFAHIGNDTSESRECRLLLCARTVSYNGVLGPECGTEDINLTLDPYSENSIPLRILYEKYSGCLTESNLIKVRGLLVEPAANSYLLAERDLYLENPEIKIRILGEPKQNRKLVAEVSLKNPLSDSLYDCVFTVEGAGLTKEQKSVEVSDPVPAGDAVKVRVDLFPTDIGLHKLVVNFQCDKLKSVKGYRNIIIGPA
UniProt P21981: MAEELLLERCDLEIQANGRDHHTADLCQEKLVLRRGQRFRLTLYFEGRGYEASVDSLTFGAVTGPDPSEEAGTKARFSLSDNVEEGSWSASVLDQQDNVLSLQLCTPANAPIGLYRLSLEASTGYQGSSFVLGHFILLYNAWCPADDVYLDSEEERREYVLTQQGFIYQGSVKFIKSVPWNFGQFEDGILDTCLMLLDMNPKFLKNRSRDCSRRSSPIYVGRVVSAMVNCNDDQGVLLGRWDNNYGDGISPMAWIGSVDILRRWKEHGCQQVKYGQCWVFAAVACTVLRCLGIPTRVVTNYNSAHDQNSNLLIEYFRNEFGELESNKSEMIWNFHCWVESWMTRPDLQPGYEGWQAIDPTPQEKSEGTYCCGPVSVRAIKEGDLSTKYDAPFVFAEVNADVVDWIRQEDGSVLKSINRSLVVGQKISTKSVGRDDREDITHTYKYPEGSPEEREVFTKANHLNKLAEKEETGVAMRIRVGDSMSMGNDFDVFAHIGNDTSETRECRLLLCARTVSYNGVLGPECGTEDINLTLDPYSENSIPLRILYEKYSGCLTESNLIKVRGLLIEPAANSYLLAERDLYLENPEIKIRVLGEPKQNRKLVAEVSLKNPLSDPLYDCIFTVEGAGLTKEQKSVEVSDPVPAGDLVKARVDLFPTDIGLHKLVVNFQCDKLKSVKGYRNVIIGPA
UniProt P21980: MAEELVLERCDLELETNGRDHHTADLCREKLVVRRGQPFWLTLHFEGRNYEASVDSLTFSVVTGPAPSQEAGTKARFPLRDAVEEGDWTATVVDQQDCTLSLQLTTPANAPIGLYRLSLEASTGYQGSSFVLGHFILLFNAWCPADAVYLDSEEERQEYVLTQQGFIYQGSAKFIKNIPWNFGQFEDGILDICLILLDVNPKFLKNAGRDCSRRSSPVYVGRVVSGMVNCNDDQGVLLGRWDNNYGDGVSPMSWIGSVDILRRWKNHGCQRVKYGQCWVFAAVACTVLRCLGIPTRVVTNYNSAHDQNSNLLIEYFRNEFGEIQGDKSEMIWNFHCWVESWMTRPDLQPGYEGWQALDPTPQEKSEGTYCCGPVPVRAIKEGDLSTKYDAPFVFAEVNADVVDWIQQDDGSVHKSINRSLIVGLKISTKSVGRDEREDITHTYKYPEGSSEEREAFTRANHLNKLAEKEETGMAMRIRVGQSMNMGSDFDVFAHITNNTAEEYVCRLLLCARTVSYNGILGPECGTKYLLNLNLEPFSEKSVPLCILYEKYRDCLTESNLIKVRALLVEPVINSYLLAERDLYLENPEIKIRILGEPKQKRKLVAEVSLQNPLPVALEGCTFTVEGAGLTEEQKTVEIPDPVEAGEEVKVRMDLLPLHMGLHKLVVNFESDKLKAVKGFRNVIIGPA

How the values were obtained:
rat TG2 (rat) = rat TG2 (rat) (UniProt Q9WVJ6); assay: western blot and ELISA
mouse TG2 (mouse) = mouse TG2 (mouse) (UniProt P21981); assay: western blot and ELISA
[1] = biological target: human transglutaminase type 2 (TG2) (human) (UniProt P21980); assay: Western blot of 25 ug HepG2 lysate probed with AB1 IgG at 1 ng/ml [panel B]
[2] = biological target: human transglutaminase type 2 (TG2) (human) (UniProt P21980); assay: ELISA, purified IgG at 0.1 ug/ml, plates coated with 100 ng of each TG [panel B]
[3] = biological target: human transglutaminase type 2 (TG2) (human) (UniProt P21980); assay: western blot, reducing gel
[4] = biological target: human transglutaminase type 2 (TG2) (human) (UniProt P21980); assay: western blot of 25 µg HepG2 lysate
[5] = biological target: human transglutaminase type 2 (TG2) (human) (UniProt P21980); assay: ELISA, hybridoma supernatant
[6] = biological target: human transglutaminase type 2 (TG2) (human) (UniProt P21980); assay: ELISA, hybridoma conditioned medium, plates coated with recombinant TG (100 ng/well) [panel A]
[7] = biological target: cynomolgus monkey TG2 (cynomolgus monkey); assay: ELISA on immobilised cynomolgus monkey TG2
[8] = biological target: cynomolgus monkey TG2 (cynomolgus monkey); assay: SPR (Biacore)
[9] = biological target: cynomolgus monkey TG2 (cynomolgus monkey); assay: Biacore, antibody captured on an anti-human IgG1 (Fc) chip, cynomolgus monkey TG2 injected
[10] = biological target: human transglutaminase type 2 (TG2) (human) (UniProt P21980); assay: ELISA on immobilised human TG2
[11] = biological target: human transglutaminase type 2 (TG2) (human) (UniProt P21980); assay: SPR (Biacore)

Measured: binding

B1: AB1 murine monoclonal antibody (antibody, V domains shown)
VH: EVQLVESGGGLVKPGGSLKLSCAASGFTLSSSAMSWVRQTPDRRLEWVATISVGGGKTYYPDSVKGRFTISRDNAKNTLYLQMNSLRSEDTAMYYCAKLISLYWGQGTTLTVSS
VL: DIKMTQSPSSMYASLGERVTITCKASQDINSYLTWFQQKPGKSPKTLIYRTNRLFDGVPSRFSGSGSGQDFFLTISSLEYEDMGIYYCLQYDDFPYTFGGGTKLEIK
not listed: [7] | [8] | [9] | [10] | [11]
binds: all other assays above

B2: cDC001 chimeric antibody (murine DC1 variable regions) (antibody, human IgG1, V domains shown)
VH: EVQLVESGGGLVKPGGSLKLSCAASGFTLSTHAMSWVRQTPEKRLEWVATISSGGRSTYYPDSVKGRFTISRDNVKNTLYLQLSSLRSEDTAVYFCARLISTYWGQGTTLTVSS
VL: DITMTQSPSSIYASLGERVTITCKASQDINSYLTWFQQKPGKSPKILIYLVNRLVDGVPSRFSGSGSGQDYALTISSLEYEDMGIYYCLQYDDFPYTFGGGTKLEIK
binds: [7] | [8]

B3: cBB001 chimeric antibody (murine BB7 variable regions) (antibody, human IgG1, V domains shown)
VH: AVQLVESGGGLVKPGGSLKLSCAASGIIFSSSAMSWVRQTPEKRLEWVATISSGGRSTYYPDSVKGRFTVSRDSAKNTLYLQMDSLRSEDTAIYYCAKLISPYWGQGTTLTVSS
VL: AIKMTQSPSSMYASLGERVIITCKASQDINSYLTWFQQKPGKSPKTLIYLTNRLMDGVPSRFSGSGSGQEFLLTISGLEHEDMGIYYCLQYVDFPYTFGGGTKLEIK
binds: [7] | [8]

B4: AG9 murine monoclonal antibody (antibody, V domains shown)
VH: EVQLQQSGPELVKPGASVKMSCRASGYTFTTYVIHWVKQKPGQGLEWIGYINPYNDGARYNEKFKGKATLTSDKSSTTAYMELSSLTSEDSAVYYCARLSSDYWGQGTTLTVSS
VL: DVLMTQNPLSLPVSLGDQASISCRSSRSIEHSNGNTYLEWYLQKPGQSPKFLIYKVSNRFSGVPDRFSGSGSGTDFTLRISSVEAEDLGVYYCFQGSHVPFTFGGGTKLEIK
binds: rat TG2 (rat) | mouse TG2 (mouse) | [2] | [3] | [5] | [6]

B5: AH3 murine monoclonal antibody (antibody, V domains shown)
VH: EVQLQQSGPELVKPGASVKMSCRASGYTFTTYVIHWVKQKPGQGLEWIGYINPYNDGARYNEKFKGKATLTSDKSSTTAYMELSSLTSEDSAVYYCARLSSDYWGQGTTLTVSS
VL: DVLMTQNPLSLPVSLGDQASISCRSSRSIEHSNGNTYLEWYLQKPGQSPKFLIYKVSNRFSGVPDRFSGSGSGTDFTLRISSVEAEDLGVYYCFQGSHVPFTFGGGTKLEIK
binds: rat TG2 (rat) | mouse TG2 (mouse) | [2] | [3] | [5] | [6]

B6: hAB004 (hAB001AE) humanised AB1 antibody (antibody, V domains shown)
VH: EVQLLESGGGLVQPGGSLRLSCAASGFTFSSSAMSWVRQAPGKGLEWVSTISVGGGKTYYPDSVKGRFTISRDNSKNTLYLQMNSLRAEDTAVYYCAKLISLYWGQGTLVTVSS
VL: EIVLTQSPSSLSASVGDRVTITCKASQDINSYLTWYQQKPGKAPKLLIYRTNRLFDGVPSRFSGSGSGTDFFFTISSLQPEDFGTYYCLQYDDFPYTFGGGTKLEIK
binds: [7] | [8] | [9]

B7: hAB005 (hAB001AJ) humanised AB1 antibody (antibody, V domains shown)
VH: EVQLLESGGGLVQPGGSLRLSCAASGFTFSSSAMSWVRQAPGKGLEWVSTISVGGGKTYYPDSVKGRFTISRDNSKNTLYLQMNSLRAEDTAVYYCAKLISLYWGQGTLVTVSS
VL: DIQMTQSPSSLSASVGDRVTITCKASQDINSYLTWFQQKPGKAPKSLIYRTNRLFDGVPSRFSGSGSGTDFFLTISSLQPEDFATYYCLQYDDFPYTFGQGTKVEIK
binds: [8]

B8: hBB001BB humanised BB7 antibody (antibody, V domains shown)
VH: EVQLLESGGGLVQPGGSLRLSCAASGIIFSSSAMSWVRQAPGKGLEWVATISSGGRSTYYPDSVKGRFTVSRDSSKNTLYLQMNSLRAEDTAVYYCAKLISPYWGQGTLVTVSS
VL: DIKMTQSPSSLSASVGDRVTITCKASQDINSYLTWFQQKPGKAPKTLIYLTNRLMDGVPSRFSGSGSGQEFLLTISSLQPEDFATYYCLQYVDFPYTFGQGTKVEIK
binds: [10] | [7] | [8] | [11]

B9: hBB001AA humanised BB7 antibody (antibody, V domains shown)
VH: EVQLLESGGGLVQPGGSLRLSCAASGFTFSSSAMSWVRQAPGKGLEWVSTISSGGRSTYYPDSVKGRFTISRDNSKNTLYLQMNSLRAEDTAVYYCAKLISPYWGQGTLVTVSS
VL: DIQMTQSPSSLSASVGDRVTITCKASQDINSYLTWFQQKPGKAPKSLIYLTNRLMDGVPSRFSGSGSGTDFFLTISSLQPEDFATYYCLQYVDFPYTFGQGTKVEIK
binds: [10] | [7] | [8] | [11]
